Reference: the supplement of paper PMC7877785
± gives the uncertainty stated by the source. Many of these values have a large error.

Test: self-splicing fitness, log relative to wild type (ln ratio); higher = more splicing; Tetrahymena group I intron in knt gene, E. coli kanamycin selection, DiMSum; sequences stand for … in CUCUCU…GGAGGGAAAAGUUAUCAGGCAUGCACCUGGUAGCUAGUCUUUAAACCAAUAGAUUGCAUCGGUUUAAAAGGCAAGACCGUCAAAUUGCGGGAAAGGGGUCAACAGCCGUUCAGUACCAAGUCUCAGGGGAAACUUUGAGAUGGCCUUGCAAAGGGUAUGGUAAUAAGCUGACGGACAUGGUCCUAACCACGCAGCCAAGUCCUAAGUCAACAGAUCUUCUGUUGAUAUGGAUGCAGUUCACAGACUAAAUGUCGGUCGGGGAAGAUGUAUUCUUCUCAUAAGAUAUAGUCGGACCUCUCCUUAAUGGGAGCUAGCGGAUGAAGUGAUGCAACACUGGAGCCGCUGGGAACUAAUUUGUAUGCGAAAGUAUAUUGAUUAGUUUUGGAGUACUCGUGGUCG
Procedure, shortened: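 Library with all eight P1ex-region intron nucleotides randomised, intron inside the knt kanamycin-resistance gene on pET-22b(+), in E. coli BL21(DE3). Cells grew overnight at 37°C or 30°C on LB agar with or without 25 μg/mL kanamycin (plus 100 μg/mL carbenicillin, 50 μM IPTG, 0.2% rhamnose), in six replicate transformations. Pooled colonies were amplicon-sequenced on Illumina HiSeq 2500. DiMSum fitness is the error-weighted combination of wild-type-normalised replicate fold changes, kanamycin versus none.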

Sequence | self-splicing fitness (ln) (30 °C) | self-splicing fitness (ln) (37 °C)
UCGAAGCAAUAUUACGCGUC | -3.59 ± 0.74 | -0.484 ± 0.32
CGGGAGCAAUAUUACGGAUA | – | -3.08 ± 1.1
CUCUAGCAAUAUUACGCCUU | – | -3.56 ± 0.51
GGGGAGCAAUAUUACGCCUC | -2.81 ± 1.1 | -3.96 ± 0.73
CCGGAGCAAUAUUACGAAUU | -4.46 ± 0.51 | –
CCUUAGCAAUAUUACGUCAA | – | -3.79 ± 0.59
GACGAGCAAUAUUACGAAGA | – | -3.18 ± 0.52
GGUGAGCAAUAUUACGCCCA | -0.226 ± 1.2 | -1.88 ± 1.2
CCAGAGCAAUAUUACGCGCA | – | -3.25 ± 0.6
UCUGAGCAAUAUUACGACCA | -2.73 ± 0.8 | 0.0535 ± 0.77
CUGUAGCAAUAUUACGCCCU | -2.42 ± 1.2 | 0.000402 ± 1.2
CCUAAGCAAUAUUACGGCCC | – | -2.99 ± 1
GAGGAGCAAUAUUACGACCC | -2.79 ± 1.2 | -1.58 ± 0.87
UGAGAGCAAUAUUACGCCGU | – | -2.2 ± 0.51
AGGGAGCAAUAUUACGAUAA | -3.72 ± 0.6 | –
CUGGAGCAAUAUUACGCGCA | -3.83 ± 1 | -2.29 ± 0.63
UCAGAGCAAUAUUACGAGAA | -2.14 ± 0.54 | -1.83 ± 0.52
GAGCAGCAAUAUUACGAGGG | -4.56 ± 0.59 | -2.81 ± 0.38
AGCGAGCAAUAUUACGCAGC | – | -1.52 ± 0.5

Another view of part of the listing above:
Sequence,self-splicing fitness (ln) (30 °C),self-splicing fitness (ln) (37 °C)
GGGGAGCAAUAUUACGCCUC,-2.81 ± 1.1,-3.96 ± 0.73
CCGGAGCAAUAUUACGAAUU,-4.46 ± 0.51,–
CCUUAGCAAUAUUACGUCAA,–,-3.79 ± 0.59
GACGAGCAAUAUUACGAAGA,–,-3.18 ± 0.52
GGUGAGCAAUAUUACGCCCA,-0.226 ± 1.2,-1.88 ± 1.2
CCAGAGCAAUAUUACGCGCA,–,-3.25 ± 0.6
UCUGAGCAAUAUUACGACCA,-2.73 ± 0.8,0.0535 ± 0.77
CUGUAGCAAUAUUACGCCCU,-2.42 ± 1.2,0.000402 ± 1.2
CCUAAGCAAUAUUACGGCCC,–,-2.99 ± 1
GAGGAGCAAUAUUACGACCC,-2.79 ± 1.2,-1.58 ± 0.87
UGAGAGCAAUAUUACGCCGU,–,-2.2 ± 0.51
AGGGAGCAAUAUUACGAUAA,-3.72 ± 0.6,–
CUGGAGCAAUAUUACGCGCA,-3.83 ± 1,-2.29 ± 0.63
UCAGAGCAAUAUUACGAGAA,-2.14 ± 0.54,-1.83 ± 0.52
GAGCAGCAAUAUUACGAGGG,-4.56 ± 0.59,-2.81 ± 0.38

The list continues:

Sequence | self-splicing fitness (ln) (30 °C) | self-splicing fitness (ln) (37 °C)
UUCUAGCAAUAUUACGUCGC | – | -3.11 ± 0.61
UUUGAGCAAUAUUACGCAGU | – | -2.28 ± 0.55
UAGAAGCAAUAUUACGGUAC | – | -3.11 ± 0.52
CGCGAGCAAUAUUACGCCCA | – | -1.37 ± 1.2
CGUAAGCAAUAUUACGGAGC | – | -2.29 ± 1.1
UUUAAGCAAUAUUACGUCGC | -3.77 ± 1 | -2.39 ± 0.77
UAACAGCAAUAUUACGGUCG | -0.363 ± 0.04 | -0.0859 ± 0.056
CCUAAGCAAUAUUACGCAGC | -3.07 ± 0.29 | -2.46 ± 0.24
UUCCAGCAAUAUUACGAGCC | -3.5 ± 0.75 | -0.681 ± 1.4
UCAGAGCAAUAUUACGUCAU | – | -2.26 ± 0.55
AGUAAGCAAUAUUACGACGU | -0.0587 ± 0.09 | -0.132 ± 0.087
UCUCAGCAAUAUUACGGUCC | – | -3.52 ± 0.52
CCCUAGCAAUAUUACGCUCC | -4.64 ± 0.71 | –
GACUAGCAAUAUUACGACAU | -0.511 ± 0.012 | -0.122 ± 0.032
UGCUAGCAAUAUUACGCCAG | -3.41 ± 0.56 | –
UCCCAGCAAUAUUACGACAC | -4.98 ± 0.71 | -1.39 ± 0.55
UGUGAGCAAUAUUACGCCUA | – | -1.09 ± 0.65
UGCCAGCAAUAUUACGUCAC | -4.08 ± 0.6 | –
CCUAAGCAAUAUUACGCGCG | -3.42 ± 0.39 | -1.9 ± 0.25

Sequence | self-splicing fitness (ln) (30 °C) | self-splicing fitness (ln) (37 °C)
GGGUAGCAAUAUUACGCCCC | -1.32 ± 1.4 | –
UCGUAGCAAUAUUACGGCUC | -3.78 ± 0.52 | –
GCGGAGCAAUAUUACGGUAG | – | -3.32 ± 0.6
UCCGAGCAAUAUUACGAAGU | -4.44 ± 1 | –
GUUAAGCAAUAUUACGUAUA | -1.79 ± 0.14 | -1.54 ± 0.15
GUUGAGCAAUAUUACGCCGC | -3.06 ± 0.44 | -2.15 ± 0.5
GAUAAGCAAUAUUACGACUC | 0.0338 ± 0.1 | 0.785 ± 0.13
CGGCAGCAAUAUUACGCCGC | – | -2.05 ± 0.51
UGUUAGCAAUAUUACGAGAC | -3.17 ± 0.37 | -2.12 ± 0.77
GGACAGCAAUAUUACGCUAC | -4.74 ± 0.27 | -2.33 ± 0.24
UGAUAGCAAUAUUACGAACC | -2.25 ± 1.1 | –
GAGGAGCAAUAUUACGAGGC | -3.47 ± 0.47 | -2.39 ± 1.1
UGGGAGCAAUAUUACGAUAG | – | -3.6 ± 0.59
UUGAAGCAAUAUUACGGCAU | -0.14 ± 0.06 | 1.08 ± 0.08
UAUAAGCAAUAUUACGCCGC | -1.83 ± 0.54 | -3.2 ± 0.73
UGUUAGCAAUAUUACGGUGC | -3.76 ± 0.43 | -2.88 ± 0.32
CGUGAGCAAUAUUACGGUAA | -4.91 ± 0.51 | –
GAGGAGCAAUAUUACGGUUC | -4.35 ± 0.52 | –
AUUGAGCAAUAUUACGCUAC | – | -3.05 ± 0.53
